Results published in patent US20070148090A1, “Per (3,6-anhydro) cyclodextrin derivatives, preparation thereof and use thereof for transporting metal elements to biological targets or for decontaminating biological targets of fluids” (priority 2003, published 2007).
Entries after “also recorded” stand apart in the source; their conditions may differ. Part of at least one peptide drawing is inferred or uncertain, most often the ends.

How the values were obtained:
[1] = complexation of erbium on ion-loaded thin layer chromatography plates (1/Rf); format: binding; conditions: Polygram Ionex 25-SA-Na plates loaded with Er^3+, developed four times in water; FIG. 4
From the text: (§1) To evaluate the complexation, ion-loaded thin layer chromatography plates which allow rapid evaluation of the complexation of these ions by the species to be evaluated are used. In the present case, plates of Polygram Ionex 25-SA-Na type (Macherey-Nagel, ref: 80613) loaded with various counterions were used. In each test, the compound to be tested is introduced onto the plate, and if the compound complexes the ions, they will be retained on the plate. The plates are then developed four times in water, because of the small amount of migration of the cyclodextrin derivatives, and then the degree of complexation is determined through the value 1/Rf, where Rf represents the ratio: (distance covered by the cyclodextrin derivative/distance covered by the solvent).
(§2) Measurements of degree of complexation of lead (in the form Pb^2+) and of erbium in the form (Er^3+) were carried out for the following three compounds: • the base cyclodextrin mono-2-O-carboxyméthyle-per-(3,6-anhydro)cyclomaltohexaose (designated (1) in FIG. 4); • a cyclodextrin in accordance with the invention, prepared in the context of Example 1 (denoted (2) in FIG. 4); • a cyclodextrin in accordance with the invention, prepared in the context of Example 2 (denoted (3) in FIG. 4).

[2] = complexation of lead on ion-loaded thin layer chromatography plates (1/Rf); format: binding; conditions: Polygram Ionex 25-SA-Na plates loaded with Pb^2+, developed four times in water; FIG. 4
From the text: as §1, §2

COC(=O)[C@H](Cc1ccccc1)NC(=O)[C@H](C)NC(=O)CO[C@H]1[C@H]2O[C@H]3[C@@H]4OC[C@H]3O[C@H](O[C@H]3[C@@H]5OC[C@H]3O[C@H](O[C@H]3[C@@H]6OC[C@H]3O[C@H](O[C@H]3[C@@H]7OC[C@H]3O[C@H](O[C@H]3[C@@H]8OC[C@H]3O[C@H](O[C@H]3[C@@H]1OC[C@H]3O2)[C@@H]8O)[C@@H]7O)[C@@H]6O)[C@@H]5O)[C@@H]4O [Example 1, [(mono-2-O-methylamido)-per(3,6-anhydro)-α-cyclodextrin]-L-Ala-L-Phe OMe ester]
erbium-complexation properties (degree of complexation, 1/Rf) [1]: particularly advantageous; also recorded: complex erbium
lead-complexation properties (degree of complexation, 1/Rf) [2]: particularly advantageous
